According to paper PMC12058022, “Promiscuous structural cross-compatibilities between major shell components of Klebsiella pneumoniae bacterial microcompartments” (PLOS One, 2025):
Results are given in words; binding and its absence hold for the method and conditions named. Binding seen in cells or lysates may run through a third protein. Some entries that bind do so weakly or less than the wild type. Where a sequence is shown, tags or fusion partners need not be part of it.

Tests used:
[1] = target: PduJ, GFP10 or GFP11 fusion (tGFP screen) (Klebsiella pneumoniae (strain 342)) (UniProt A6TDD7); test: split reporter; tripartite GFP (tGFP): one BMC-H fused to GFP10 and one to GFP11, co-expressed with GFP1-9 in E. coli T7 express, LB, 10 uM IPTG; Fmax as percent of RMM/RMM (C/C); up to 8 tag configurations a pair
[2] = target: CcmK3 from Syn6803, GFP10 or GFP11 fusion (Synechocystis sp. PCC 6803) (UniProt P73406); test: as above

B1: PduJ, GFP10 or GFP11 fusion (tGFP screen) (protein, UniProt A6TDD7 1-91)
chain: MNNALGLVETKGLVGAIEAADAMVKSANVQLIGYEKIGSGLITVMVRGDVGAVKAAVDAGSAAASVVGEVKSSHVIPRPHSDVEAILPKSV
[1]
  binding: binds

B2: CcmK3 from Syn6803, GFP10 or GFP11 fusion (protein, UniProt P73406 1-103)
chain: MPQAVGVIQTLGFPSVLAAADAMLKGGRVTLVYYDLAERGNFVVAIRGPVSEVNLSMKMGLAAVNESVMGGEIVSHYIVPNPPENVLAVLPVEYTEKVARFRT
[2]
  binding: no binding
